Laboratory results: PubChem BioAssay AID1347423 (Functional Genomics Laboratory (NCATS/FGL), 2020)
The campaign covered roughly 52,000 sequences. About 210 (0.4%) were called active.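 The calls were made as follows: active = gene whose silencing raises cell survival under the drug, median off-target-corrected z-score across its silencing RNAs 2 or more; inactive = the rest.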 The list shows a part of the results.

assay: Resistance to Poly (ADP-Ribose) Polymerase inhibitor: Gene Identification via Genome-wide siRNA Screen; details: mouse BRCA2 R2336H ES cells, olaparib, CellTiter-Glo viability; stronger effect = higher value
Procedure, shortened: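 Genome-wide siRNA screen (3 siRNAs/gene, 20 nM) in mouse ES cells carrying hypomorphic BRCA2 R2336H; olaparib 500 nM added 48 h post-transfection, CellTiter-Glo viability 72 h later. Normalized to plate-median negative control; MAD z-scores, gene median, seed-adjusted.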

Row | Sequence | z-score
1 | CCACAUGGAACCACUAACUTT against Wnt11 | inactive: 0.531
2 | CGAAUGGCUAUCAGUGAGGTT against 2810442O16Rik | inactive: -0.098
3 | GGAUGUACCACCUUUCUGGTT against Klhl6 | inactive: 1.02
4 | GGUACUGAGUGUGUUUUGCTT against Olfr1364 | inactive: 0.233
5 | GCACUGUAUUCUUGAGCACTT against 1700020L24Rik | inactive: 0.183
6 | GGACAGUUUACUCCAGAUATT against Foxc1 | inactive: 2.33
7 | GGGUCCAGUCAAUCAGAAATT against Znhit2 | inactive: -0.0601
8 | GCAUCGAUAUCAGGACAUGTT against Deaf1 | inactive: -1.31
9 | GGUCCAAGAGAAAUGUGUATT against 4933428I03Rik | inactive: 2.55
10 | CGUACACCAUUCAAGGUACTT against Kif20a | inactive: -0.00548
11 | GGCACUUGUGAGAAAAAUCTT against 3830422K02Rik | inactive: -0.225
12 | GGCAGCAUGAAAGAAAAAATT against 6820428D13 | inactive: 1.14
13 | GGAGAACAACAAAGACAAGTT against Hoxb8 | inactive: -0.978
14 | GCUCCAACCCAAGAAAUUCTT against Hlx1 | inactive: 0.989
15 | GGGUCUUCACUUUGAACCUTT against Adk | inactive: -1.24
16 | GGUCGGGAAGUGGUAAAACTT against Traf3ip1 | inactive: 2.15
17 | GGAUUUCGACAAUAUGAAGTT against Chrnb2 | active: 2.24
18 | GGUUGAAAAAGAACAGUGCTT against Bnc1 | inactive: -1.48
19 | GGAGGUUACCUUCUACAGCTT against Il8rb | inactive: 2.29
20 | GGUGCUUCUGGGAAACUUCTT against 2600011C06Rik | inactive: -2.6
21 | GGUCCAAAAAUGGCUUGGCTT against Fabp9 | inactive: 0.0757
22 | CCUCAGAUGGAGGUUACUCTT against Inha | inactive: -1.92
23 | GGCAUAUUUGCCUGCAUAATT against C030019F02Rik | inactive: -1.17
24 | CAAUGACAGCAGAUGACGUTT against Crabp2 | inactive: 1.23
25 | GGCUCACUCUCCAUUCUACTT against Asb6 | inactive: -0.374
26 | GCAAUGGUUGAAGAAAUUUTT against 9030611K07Rik | inactive: -0.0859

2 entries drawn at random from the list so far:
Row | Sequence | z-score
25 | GGCUCACUCUCCAUUCUACTT against Asb6 | inactive: -0.374
17 | GGAUUUCGACAAUAUGAAGTT against Chrnb2 | active: 2.24

Following part.

Row | Sequence | z-score
27 | GCAGCCAAGUGGGUAACUUTT against Nicn1 | inactive: -1.49
28 | CCACCAGAUACAUAUUUGUTT against Gnpnat1 | inactive: 0.683
29 | GCUGUUAUCAACUUACUAATT against Rpe | inactive: -0.28
30 | GGACAGCAUGAACUAACCCTT against Ednra | inactive: 0.769
31 | GGAUAGACACUAGGAUCCUTT against Pdcd1lg2 | inactive: 1
32 | GCUCCUCAUUAAGGCUGUCTT against 1110037P11Rik | inactive: -2.16
33 | GGCAGCAGUGAAGAAAGUATT against Olfr131 | inactive: -1.01
34 | GGAACGUGGAUCUUUUUAUTT against Wiz | inactive: 0.484
35 | GGACUGUAUCUCCAUCAAATT against 2210417D09Rik | inactive: 0.115
36 | GGGCAUCGAUAUCAUGCUATT against Epb4.1l1 | inactive: 1.49
37 | GCACCUCUACUAUGAGGCUTT against 1110020C03Rik | inactive: -1.06
38 | GGAACUGGCUUCAAACCUUTT against MGC41689 | inactive: -0.886
39 | GCUGGACGGUAGAAGAAUCTT against G430041M01Rik | inactive: -0.573
40 | GCAUAGUGGAACAGUCUAUTT against Tcte1l | inactive: 0.923
41 | GCCCUCUCCAAACAUUGAATT against Neo1 | inactive: -0.733
42 | GGCCAUGGGUAUUAAUGACTT against Dhx8 | inactive: -0.895
43 | GCACAUGCAUGGCUCUAAGTT against AA589481 | inactive: -0.729
44 | GCUACCUGUCUGGACAUUUTT against Gfra3 | inactive: -1.03
45 | CCGUCAUACUCCGUGAUUCTT against Samd11 | inactive: 1.56
46 | GGUGAAGGUGCCUUCCAAATT against Il27ra | inactive: -0.54
47 | GCUUGUCCUUUUUAGACAATT against Ipmk | inactive: 0.639
48 | GGCCAGCUGAGCUUAAAGATT against Ccna2 | inactive: -1.48
49 | GGACUUUCACAGACCACUUTT against Rgma | inactive: 0.765
50 | CCAAUUUAACUGUUGGUGGTT against Supt5h | inactive: 0.616
51 | GGAAGAAAUGGAAUUGAAGTT against Pcdhga6 | inactive: -0.434
52 | GCCAAUGAAAAACACCACUTT against Adam12 | inactive: -0.445

Part of the list above, with tabs.
Row	Sequence	z-score
43	GCACAUGCAUGGCUCUAAGTT against AA589481	inactive: -0.729
44	GCUACCUGUCUGGACAUUUTT against Gfra3	inactive: -1.03
